Results on 61 compounds are retold here after PubChem BioAssay AID493014 (National Center for Advancing Translational Sciences (NCATS), 2011).

Some of the results follow. Shown are side measurements of this screen, not its main read-out; they come without a call. Compounds called inactive in the main read-out are mostly missing here. Words in brackets tell the shape of the fitted curve; partial curves, single points and poor fits give uncertain potencies.

By AC50 is commonly meant the midpoint of the concentration-response curve, whichever way the signal moves.

This test can be described thus: qHTS Assay to Find Inhibitors of Chronic Active B-Cell Receptor Signaling. The following applies: ABC-DLBCL IkBa-CBG/CBR reporter, luminescence ratio (green luciferase fused to IkBa over red control in TMD8 lymphoma cells), 4 h. The gist of the method:
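Compounds up to 46 uM were incubated four hours with TMD8 cells whose green CBG68 luciferase is fused to IkappaBalpha; red CBR luminescence normalised the signal, and concentration-effect curves were fitted to fusion, red and ratio data.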
Background: In qHTS, concentration-response curves come from the screen itself.

Where [1] appears, read: measured here: CBR red luminescence, cell number.
[2] abbreviates: measured here: IkBa-CBG green luminescence.

As to `Cc1c(C(=O)NC2CCCCC2)oc2ccc(F)cc12`, under setting [1], the AC50 was 3.98 µM [falling, single point].
As for `N/C(=N\OC(=O)c1ccccc1)c1ccn[nH]1`, the concentration at half-maximal activity (AC50) under setting [1] is 12.6 µM [falling, partial curve, poor fit].
Regarding `COc1ccc(C(=O)Oc2ccc(/C=N/Nc3ccc(Cl)c(C(=O)O)c3)cc2OC)cc1`, the concentration at half-maximal activity (AC50) under setting [1] is 12.6 µM [falling, partial curve].
In the case of `Cc1nn(Cc2ccccc2)c(C)c1NC(=O)c1noc2c1CCc1ccccc1-2`, the AC50 under setting [1] is 6.51 µM [rising, single point].
As to `CCCCc1ccc(NC(=S)Nc2cccnc2)cc1`, under setting [1], the AC50 is 20.6 µM [rising, single point].
The same measure, in the same setting: with `O=C1OCCN/C1=C\C(=O)c1ccccc1` the figure was 3.16 µM [falling, single point].
As for `CSc1ccc(/C=N/NC(=O)c2ccccc2Cl)cc1`, the AC50 under setting [1] was 6.31 µM [falling, partial curve].
Consider `CC1(C)CC(=O)C2=C(C1)Nc1ncnn1C2c1cccs1` (stereo unspecified), for which the AC50 under setting [1] was 3.98 µM [rising, partial curve, poor fit].
On the same count and under the same terms, with `CCOC(=O)C1C(=O)NC(N2CCCCC2)=NC1c1ccco1` (stereo unspecified) the figure was 6.51 µM [falling, single point]; with `Cn1nc([N+](=O)[O-])nc1Oc1ccccc1N`, 29.1 µM [falling, single point].
Take `Cc1nc2nc(-c3ccco3)[nH]n2c(=O)c1Cc1ccccc1`: the AC50 under setting [1] was 6.51 µM [falling, partial curve].
As for `CCOC(=O)C(=CNc1cc(OC)ccc1-n1cccc1)C(=O)OCC`, the AC50 under setting [1] was 35.5 µM [falling, single point].
Regarding `COC(=O)c1c(NC(=O)c2nc3ccccc3s2)sc2c1CCN(C(C)=O)C2`, the AC50 under setting [1] is 0.366 µM [falling, partial curve].
Still for that read-out and setting: with `Cc1ccc(NC(=O)Cn2cnc([N+](=O)[O-])c2)cc1C` the figure was 22.4 µM [falling, single point]; with `CSc1nc(O)cc(=O)n1-c1ccc(F)cc1`, 12.6 µM [falling, partial curve].
For `COC(=O)COc1ccc(S(=O)(=O)N2CCOCC2)cc1C`, the concentration at half-maximal activity (AC50) under setting [1] was 29.1 µM [rising, single point].
Still for that read-out and setting: the value for `Cc1ccccc1NCC(=O)N/N=C/c1c(C)c(C(=O)c2ccc(Cl)cc2)n2ccccc12` was 29.1 µM [falling, single point]; that for `Cc1cc(C)nc(SC/C=C/c2ccccc2)n1` was 15.8 µM [rising, partial curve, poor fit].
On the same count and under the same terms, with `O=C(/C=C/c1ccccc1)OCC(=O)c1c[nH]c2ccccc12` the figure was 0.731 µM [rising, full curve, poor fit]; with `O=C1CC(N2CCCc3ccccc32)C(=O)N1c1ccccc1Cl` (stereo unspecified), 7.31 µM [falling, partial curve].
Turning to `COCCCNC(=O)CSC1=Nc2ccccc2C2=NC(Cc3c[nH]c4ccccc34)C(=O)N12` (stereo unspecified), the AC50 under setting [1] is 14.1 µM [falling, partial curve, poor fit].
For `CC(=O)c1ccc(NS(=O)(=O)c2ccc(-c3cnc(C4CC4)o3)cc2)cc1`, under setting [1], the half-maximal activity concentration (AC50) was 20 µM [falling, single point].
As to `Cc1ccc(Cn2nnnc2CN2CCC(O)(c3ccc(F)cc3)CC2)cc1`, the half-maximal activity concentration (AC50) under setting [1] is 15.8 µM [falling, partial curve, poor fit].
For the compound `CCC1CCCCN1S(=O)(=O)c1cc(C(=O)Nc2ccc(C)c(F)c2)ccc1F` (stereo unspecified), under setting [1], the AC50 is 1.26 µM [falling, full curve, poor fit].
Same read-out and setting: the value for `COc1cc(NC(=O)Cn2c(=O)n(CC3CCCO3)c(=O)c3ccccc32)cc(OC)c1` (stereo unspecified) was 20 µM [falling, partial curve, poor fit].
Take `Cc1ccc(-n2ncc(C(=O)Nc3cc(Cl)cc(Cl)c3)c2C2CCNCC2)cc1C`: the half-maximal activity concentration (AC50) reads like this: under setting [1], 1.41 µM [rising, full curve, poor fit]; under setting [2], 22.4 µM [falling, single point].
Take `Cc1cccc(C(=O)N[C@H](C(=O)Nc2cccc(S(=O)(=O)N3CCCC3)c2)C(C)C)c1`: the AC50 under setting [1] was 10 µM [falling, partial curve, poor fit].
For `O=C(CSc1nnc(-c2ccccc2)o1)Nc1ccccc1F`, the AC50 under setting [1] was 4.61 µM [falling, full curve].
Still for that read-out and setting: the value for `COc1ccc(N(CC(=O)N2CCN(Cc3ccc4c(c3)OCO4)CC2)S(=O)(=O)c2ccc(F)cc2)cc1` was 0.891 µM [rising, partial curve, poor fit]; that for `CC(C)COc1ccc(-c2nn(-c3ccccc3)cc2C(=O)Nc2nccs2)cc1` was 3.26 µM [falling, partial curve, poor fit]; that for `O=C(CS(=O)(=O)c1ccc(Cl)c(Cl)c1)Nc1ccccc1Cl` was 1.64 µM [falling, partial curve, poor fit].
On to `Cc1cc(C)nc(SCc2nnc(SCC(=O)Nc3ncc(C)s3)n2Cc2ccco2)n1`, for which the concentration at half-maximal activity (AC50) under setting [1] is 7.31 µM [falling, partial curve, poor fit].
With `COc1ccc(C(=O)COC(=O)C2CCCN2C(=O)C23CC4CC(CC(C4)C2)C3)cc1` (stereo unspecified), the AC50 under setting [1] is 18.4 µM [falling, partial curve, poor fit].
Take `O=C(CN1CCN(Cc2ccc(F)cc2Cl)C1=O)NCc1cccs1`: the concentration at half-maximal activity (AC50) under setting [1] was 0.562 µM [rising, partial curve, poor fit].
Consider `O=[N+]([O-])c1ccccc1OCCCN1CCOCC1`, for which, under setting [1], the half-maximal activity concentration (AC50) was 0.501 µM [rising, full curve, poor fit].
Consider `O=C(COc1ccc2c(c1)OCO2)Nc1nncs1`, for which the AC50 under setting [1] is 7.08 µM [falling, partial curve, poor fit].
As to `CC1=CC(C)C(C(=O)O)C(C(=O)N2CCN(C)CC2)C1` (stereo unspecified), the concentration at half-maximal activity (AC50) under setting [1] was 35.5 µM [rising, single point].
Same read-out and setting: the value for `CCCNC(=O)c1ccccc1NC(=O)c1ccc2c(c1)NC(=O)C(C)S2` (stereo unspecified) was 14.1 µM [falling, partial curve, poor fit].
With `CC(=O)C1=C(C)OC(N)=C(C#N)C1c1cc([N+](=O)[O-])ccc1Cl` (stereo unspecified), the half-maximal activity concentration (AC50) is 22.4 µM [falling, partial curve, poor fit] under setting [1] and 17.8 µM [falling, single point] under setting [2].
As for `O=C(CSCc1ccc(C(=O)O)cc1)Nc1ccc2ccccc2c1`, under setting [1], the half-maximal activity concentration (AC50) was 14.1 µM [falling, partial curve, poor fit].
Take `CSc1ccccc1OCc1cc(C(=O)N[C@H]2CCCCNC2=O)no1`: under setting [1], the concentration at half-maximal activity (AC50) is 6.31 µM [falling, full curve, poor fit].
Turning to `CC1CCc2c(sc3nc(SCC(=O)O)n(-c4ccccc4)c(=O)c23)C1` (stereo unspecified), under setting [1], the AC50 was 3.55 µM [rising, full curve, poor fit].
Still for that read-out and setting: with `N#Cc1ccc(-c2ccco2)nc1SCC(=O)c1ccc(Cl)cc1` the figure was 1 µM [rising, full curve, poor fit]; with `C[C@@H](C(=O)N1CCN(C(=O)OC(C)(C)C)CC1)n1cc(CCCN=C(NC(=O)OC(C)(C)C)NC(=O)OC(C)(C)C)nn1`, 35.5 µM [rising, single point]; with `Cc1cc2c(c(=O)n1CCN(C)C)C(c1ccncc1)C(C#N)=C(N)O2` (stereo unspecified), 6.51 µM [falling, single point].
Regarding `CCOC(=O)Nc1ccc2nc(N3CCCCCC3)sc2c1`, the AC50 was 7.08 µM [rising, full curve, poor fit] under setting [1] and 11.2 µM [falling, partial curve] under setting [2].
As for `CCc1nc(SCC(=O)Nc2ccc(C(=O)O)cc2)n[nH]1`, the AC50 under setting [1] is 29.1 µM [falling, single point].
In the case of `COc1ccc(-c2nc3ccccc3o2)cc1NC(=O)c1ccc(Br)o1`, the AC50 under setting [1] was 1 µM [rising, full curve, poor fit].
As to `Cc1cc(C(=O)NCCC(c2ccccc2)c2ccccc2)c(C)o1`, under setting [1], the half-maximal activity concentration (AC50) was 29.1 µM [falling, single point].
Still for that read-out and setting: the value for `CO/N=C/C(c1ccc(Cl)nc1)S(=O)(=O)c1ccccc1` (stereo unspecified) was 5.62 µM [rising, single point].
As for `Cc1csc(NC(=O)CSc2[nH]c(=O)ncc2C)n1`, the AC50 runs as follows: under setting [1], 0.058 µM [falling, partial curve, poor fit]; under setting [2], 0.731 µM [rising, partial curve, poor fit].
As for `COc1ccc(/C=C/C(=O)Nc2ccc(C)c(S(=O)(=O)N3CCOCC3)c2)cc1`, the half-maximal activity concentration (AC50) under setting [1] was 3.26 µM [falling, partial curve, poor fit].
Consider `Cc1ccc(/C=N/n2c(-c3ccco3)n[nH]c2=S)s1`, for which the concentration at half-maximal activity (AC50) under setting [1] is 1.64 µM [falling, partial curve].
In the case of `COc1ccc(NC(=O)Nc2cccc([N+](=O)[O-])c2)cc1Cl`, under setting [1], the AC50 is 29.1 µM [falling, single point].
Turning to `CCC(=O)NC(c1cccs1)c1cc(Br)c2cccnc2c1O` (stereo unspecified), under setting [1], the AC50 was 4.61 µM [falling, partial curve].
Still for that read-out and setting: the value for `CC(=O)N1CCC(=NNC(=O)c2cccs2)CC1` was 8.2 µM [falling, single point].
In the case of `COc1cccc(CN(C(=O)Cc2c[nH]c3ccccc23)C(C(=O)NC2CCCCC2)c2cccs2)c1` (stereo unspecified), the half-maximal activity concentration (AC50) is 32.6 µM [falling, single point] under setting [1] and 32.6 µM [rising, partial curve, poor fit] under setting [2].
`O=C1CN(C(=O)COC(=O)/C=C/c2ccc(F)cc2)c2ccccc2N1`: the half-maximal activity concentration (AC50) under setting [1] was 2.91 µM [rising, full curve].
`CCOc1ccccc1Nc1nc(-c2sc(NC(=O)c3cccc(Cl)c3)nc2C)cs1`: under setting [1], the AC50 is 6.31 µM [falling, partial curve, poor fit].
On the same count and under the same terms, the value for `COC(=O)[C@H](CCSC)NC(=O)c1cc2c(cn1)[nH]c1ccccc12` was 0.501 µM [falling, full curve, poor fit]; that for `O=C(CCS(=O)(=O)c1cccc2nonc12)NCCc1ccccc1Cl` was 3.66 µM [rising, single point].
